From PubChem BioAssay AID234 (DTP/NCI, 2004) come the findings set out here.

The list shows only some results of the screen, not a fair sample: it is rich in T/C values a quarter to a half above the control, in often repeated tests (any T/C) and in doses without a T/C. Further doses and runs are listed elsewhere. T/C: endpoint of the treated group in % of that of the vehicle group. Schedules are NCI's codes, taken here to give the interval after Q, in days (D) or hours (H), and the number of doses after X. Some T/C values are followed by the survivors on the day toxicity was checked, most often the fifth; where none is given, no animal had died by that day. Some entries give survivors of the animals treated and no T/C: the source holds a T/C of zero for them, seemingly a mark for toxic or unscored doses. Survivors were counted at the toxicity check, usually on the fifth day, unless a day is given; later deaths do not show. Some entries were tested several times; the results are listed from low to high.

The test system of the test is C3AKF1 mice, hamster liver cystadenocarcinoma s.c., tumor weight T/C. Description: NCI In Vivo Anticancer Drug Screen. Data for tumor model Cystadenocarcinoma, Liver (No. 1) (Hamster) (subcutaneous) in C3AKF1 (CHKRF1) mice. Conditions: T/C endpoint: mean tumor weight, schedule: Q01DX010 (ip), higher T/C = larger tumour; for T/C: evaluated on day 15. The procedure: The antitumor activity of compounds was measured in mice bearing transplantable tumors. Survival or tumor size were measured and the results are expressed as the measurement made in the treated group (T) divided by the measurement made in the vehicle treated control group (C). The tumor model used in this assay is Cystadenocarcinoma, Liver (No. 1) (Hamster) (subcutaneous) in C3AKF1 (CHKRF1) mice

The mark [1] stands for this setting: dose: 60.0 mg/kg/injection, vehicle: carboxymethylcellulose (CMC).
The mark [2] stands for this setting: dose: 200.0 mg/kg/injection, vehicle: carboxymethylcellulose (CMC).
Where [3] appears, read: dose: 40.0 mg/kg/injection, vehicle: carboxymethylcellulose (CMC).
Setting [4] is: dose: 10.0 mg/kg/injection, vehicle: carboxymethylcellulose (CMC).
Setting [5] is: dose: 25.0 mg/kg/injection, vehicle: carboxymethylcellulose (CMC).
Where [6] appears, read: dose: 40.0 mg/kg/injection, vehicle: saline.
[7] abbreviates: dose: 120.0 mg/kg/injection, vehicle: carboxymethylcellulose (CMC).

As to `Cc1ccc(N2CCN(CCCN3CCN(c4ccc(Cl)cc4)CC3)CC2)cc1`, the survivor count under setting [1] was 3 of 6.

For the molecule `CC(=O)NCCSC(=O)C(=O)SCCNC(C)=O`, the survivor count under setting [2] is listed as 3 of 6.

As to `CCCCn1cnc2c(=S)nc(N)[nH]c21`, the T/C is, setting by setting: (dose: 3.0 mg/kg/injection, vehicle: carboxymethylcellulose (CMC)) 127 % of control; (dose: 15.0 mg/kg/injection, vehicle: carboxymethylcellulose (CMC)) 130 % of control. The survivor count under setting [1] is recorded as 1 of 6.

Take `CCOC(=O)Sc1ncnc2nc[nH]c12`: the survivor count (dose: 112.0 mg/kg/injection, vehicle: carboxymethylcellulose (CMC)) is 3 of 6.

Consider `C=CCn1c(=O)n(CC=C)c(=O)n(CC=C)c1=O`, for which, where the note is “dose: 180.0 mg/kg/injection, vehicle: saline”, the survivor count was 2 of 6.

On to `CSc1ncc(Br)c(Sc2nc(N)nc3nc[nH]c23)n1`, for which the survivor count (dose: 18.0 mg/kg/injection, vehicle: carboxymethylcellulose (CMC)) is reported as 4 of 7 and the survivor count under setting [3] is listed as 1 of 7.

On to `O=C(O)CCc1c[nH]c2ccc(N(CCCl)CCCl)cc12`, for which the survivor count reads like this: (dose: 5.0 mg/kg/injection, vehicle: carboxymethylcellulose (CMC)) 4 of 7; under setting [4], 0 of 7; (dose: 20.0 mg/kg/injection, vehicle: carboxymethylcellulose (CMC)) 0 of 7; under setting [3], 0 of 7.

Regarding `CCOc1ccc(Nc2ncnc3nc[nH]c23)cc1CN(CCCl)CCCl`, the survivor count (dose: 8.0 mg/kg/injection, vehicle: saline) is reported as 0 of 6.

In the case of `NC(CCSCc1ccc(N(CCCl)CCCl)cc1)C(=O)O` (stereo not given), the survivor count runs as follows: (dose: 36.0 mg/kg/injection, vehicle: saline) 4 of 7; (dose: 54.0 mg/kg/injection, vehicle: saline) 0 of 7.

For the molecule `CCCC(Sc1nc(N)nc2nc[nH]c12)C(=O)O` (stereo not given), under setting [3], the T/C is 127 % of control. For the setting “dose: 320.0 mg/kg/injection, vehicle: carboxymethylcellulose (CMC)”, the survivor count is on record as 2 of 6.

As to `CSc1ncnc2c1ncn2C1CCCO1` (stereo not given), the survivor count by setting is: under setting [2], 1 of 7; (dose: 400.0 mg/kg/injection, vehicle: carboxymethylcellulose (CMC)) 0 of 7.

`Nc1nc(SCc2ccccc2Cl)c2ncn(C3OC(CO)C(O)C3O)c2n1` (stereo not given): the T/C under setting [5] was 141 % of control [4 of 6 alive]. Besides, the survivor count (dose: 100.0 mg/kg/injection, vehicle: carboxymethylcellulose (CMC)) is given as 3 of 6 and the survivor count under setting [2] is 1 of 6.

As to `CCOC1=CCCCC1`, under “dose: 31.0 mg/kg/injection, vehicle: carboxymethylcellulose (CMC)”, the T/C was 135 % of control.

Consider `O=C(COc1cc(Cl)c(Cl)cc1Cl)OCCOc1cc(Cl)c(Cl)cc1Cl`, for which, for the setting “dose: 90.0 mg/kg/injection, vehicle: carboxymethylcellulose (CMC)”, the T/C was 125 % of control [4 of 6 alive].

Regarding `C=CCNc1ccc(C)cc1`, the survivor count (dose: 185.0 mg/kg/injection, vehicle: saline) was 0 of 7; the survivor count (dose: 275.0 mg/kg/injection, vehicle: saline) is listed as 0 of 7; the survivor count (dose: 415.0 mg/kg/injection, vehicle: saline) is 0 of 7.

For the molecule `CCC[CH2][Sn]1([CH2]CCC)[O]C(=O)C[S]1`, the survivor count by setting is: (dose: 3.12 mg/kg/injection, vehicle: saline) 0 of 7; (dose: 6.25 mg/kg/injection, vehicle: saline) 0 of 7; (dose: 12.5 mg/kg/injection, vehicle: saline) 0 of 7; (dose: 25.0 mg/kg/injection, vehicle: saline) 0 of 7.

In the case of `COc1ccc(-c2c(CC(=O)O)c3cc(OC)ccc3n2Cc2ccc(Cl)cc2)cc1`, the T/C (dose: 1000.0 mg/kg/injection, vehicle: carboxymethylcellulose (CMC)) was 142 % of control.

In the case of `O=C1NC2C(NC(=O)N2Cl)N1Cl` (stereo not given), the survivor count runs as follows: under setting [6], 3 of 6; (dose: 80.0 mg/kg/injection, vehicle: saline) 0 of 6; (dose: 160.0 mg/kg/injection, vehicle: saline) 0 of 6.

In the case of `CN(N=O)C(N)=O`, the T/C (dose: 7.5 mg/kg/injection, vehicle: carboxymethylcellulose (CMC)) is 129 % of control. The survivor count under setting [1] is recorded as 3 of 6 and the survivor count under setting [7] is recorded as 0 of 6.

`O=C1N(Cl)C(=O)C(c2ccc(Cl)cc2)(c2ccc(Cl)cc2)N1Cl`: under setting [7], the survivor count is reported as 2 of 6.

Consider `CC1(C)N=C(N)N=C(N)N1c1cccc(Br)c1`, for which the survivor count is 1 of 6 and 3 of 7 under setting [4]; 3 of 6 (dose: 16.0 mg/kg/injection, vehicle: carboxymethylcellulose (CMC)); 1 of 6 under setting [5]; 0 of 6 (dose: 37.0 mg/kg/injection, vehicle: carboxymethylcellulose (CMC)).

Turning to `C/C=C1\CN(C)[C@H]2Cc3c([nH]c4ccccc34)[C@@H](c3cc4[nH]c5c(c4cc3OC)CCN3C[C@H]4C[C@H](CC)[C@H]3[C@@]5(C(=O)OC)C4)C[C@H]1C2C(=O)OC` (stereo not given in full), the survivor count (dose: 30.0 mg/kg/injection, vehicle: water) was 1 of 7; the survivor count (dose: 45.0 mg/kg/injection, vehicle: water) was 0 of 7 and 1 of 8.

`O=C(Nc1ccc(C2=NCCN2)cc1)c1ccc(C(=O)Nc2ccc(C3=NCCN3)cc2)c(NC(=O)c2ccc(C(=O)Nc3cc(C(=O)Nc4ccc(C5=NCCN5)cc4)ccc3C(=O)Nc3ccc(C4=NCCN4)cc3)cc2)c1`: the T/C (dose: 125.0 mg/kg/injection, vehicle: carboxymethylcellulose (CMC)) is 126 % of control. For the same molecule, where the note is “dose: 500.0 mg/kg/injection, vehicle: carboxymethylcellulose (CMC)”, the survivor count is 2 of 6.

With `Fc1ccc(CSc2ncnc3c2ncn3C2CCCCO2)cc1` (stereo not given), the survivor count (dose: 1440.0 mg/kg/injection, vehicle: carboxymethylcellulose (CMC)) is given as 0 of 6.

For `c1ccc(CSc2ncnc3nc[nH]c23)nc1`, the survivor count is, setting by setting: (dose: 150.0 mg/kg/injection, vehicle: carboxymethylcellulose (CMC)) 0 of 6; (dose: 300.0 mg/kg/injection, vehicle: carboxymethylcellulose (CMC)) 0 of 6; (dose: 600.0 mg/kg/injection, vehicle: carboxymethylcellulose (CMC)) 0 of 6.

For `O=C(Nc1ccc(C2=NCCN2)cc1)c1ccc(C(=O)Nc2ccc(C3=NCCN3)cc2)c(Cl)c1`, under setting [6], the survivor count is 3 of 8.

In the case of `CN(C)Nc1ncnc2nc[nH]c12`, the T/C (dose: 80.0 mg/kg/injection, vehicle: carboxymethylcellulose (CMC)) was 125 % of control. Where the note is “dose: 160.0 mg/kg/injection, vehicle: carboxymethylcellulose (CMC)”, the survivor count is recorded as 0 of 6.
